The list shows only some results of the screen, not a fair sample: it gathers tests that were run many times, whatever their T/C, doses with no T/C, and many T/C values between a quarter and a half above the control. Other doses and runs of a compound stand elsewhere. T/C: endpoint of the treated group in % of that of the vehicle group. Some entries give survivors of the animals treated and no T/C: the source holds a T/C of zero for them, seemingly a mark for toxic or unscored doses. Some doses without a T/C left all or most animals alive at the check, yet need not have been tolerated: the source hardly ever lists a survival T/C far under the control, and the zero likely stands for such cases as well. Survivors were counted at the toxicity check, usually on the fifth day, unless a day is given; later deaths do not show. Schedules are NCI's codes, taken here to give the interval after Q, in days (D) or hours (H), and the number of doses after X. Some entries were tested several times; the results are listed from low to high. For survival time, the PubChem record calls one and a half times the control and up active, and a quarter to a half above the control has no call in these data; cut-offs in other NCI protocols can differ. Some T/C values are followed by the survivors on the day toxicity was checked, most often the fifth; where none is given, no animal had died by that day.
System: P388 leukemia ip, CD2F1 mice, survival T/C
Assay: NCI In Vivo Anticancer Drug Screen. Data for tumor model P388 Leukemia (intraperitoneal) in CD2F1 (CDF1) mice
Conditions: T/C endpoint: median survival time, higher T/C = longer survival
[1] = dose: 400.0 mg/kg/injection, schedule: Q04DX003 (ip), vehicle: saline with Tween-80
[2] = dose: 200.0 mg/kg/injection, schedule: Q01DX005 (ip), vehicle: saline with Tween-80
[3] = dose: 240.0 mg/kg/injection, schedule: Q01DX005 (ip), vehicle: saline with Tween-80
[4] = dose: 100.0 mg/kg/injection, schedule: Q01DX009 (ip), vehicle: saline with Tween-80
[5] = dose: 200.0 mg/kg/injection, schedule: Q01DX009 (ip), vehicle: saline with Tween-80
[6] = dose: 100.0 mg/kg/injection, schedule: Q01DX009 (ip), vehicle: saline
[7] = dose: 200.0 mg/kg/injection, schedule: Q01DX009 (ip), vehicle: saline
[8] = dose: 50.0 mg/kg/injection, schedule: Q01DX009 (ip), vehicle: saline with Tween-80
[9] = dose: 240.0 mg/kg/injection, schedule: Q01DX005 (ip), vehicle: saline
[10] = dose: 15.0 mg/kg/injection, schedule: Q01DX005 (ip), vehicle: saline

CC(=O)O[C@]12C=C[C@H](O1)[C@@H]1C(=O)NC(=O)[C@@H]12
survivor count (dose: 100.0 mg/kg/injection, schedule: Q04DX002 (ip), vehicle: Klucel (hydroxypropylcellulose) (HPC)): 2 of 6
survivor count (dose: 200.0 mg/kg/injection, schedule: Q04DX002 (ip), vehicle: Klucel (hydroxypropylcellulose) (HPC)): 0 of 6
survivor count (dose: 400.0 mg/kg/injection, schedule: Q04DX002 (ip), vehicle: Klucel (hydroxypropylcellulose) (HPC)): 0 of 6

CC1=CC=CC2=NC(=O)CCN12
survivor count [1]: 4 of 6

C=C1C(C(=O)OC)=NNc2c(C(N)=O)ncn21
survivor count (dose: 400.0 mg/kg/injection, schedule: Q01DX001 (ip), vehicle: Klucel (hydroxypropylcellulose) (HPC)): 1 of 6

CCCCS(=O)(=O)CSC#N
survivor count (dose: 50.0 mg/kg/injection, schedule: Q01DX005 (ip), vehicle: saline with Tween-80): 0 of 5
survivor count (dose: 100.0 mg/kg/injection, schedule: Q01DX005 (ip), vehicle: saline with Tween-80): 0 of 5
survivor count [2]: 0 of 5

CN1C(=O)n2c(nc3ccccc32)C(N=[N+]=[N-])(N=[N+]=[N-])C1=O (configuration not stated)
survivor count (dose: 120.0 mg/kg/injection, schedule: Q01DX005 (ip), vehicle: saline with Tween-80): 2 of 6
survivor count [3]: 0 of 6

CCCCCN(CCCCC)C(C)C(O)c1ccc2cc(Cl)c3ccccc3c2c1 (configuration not stated)
survivor count [2]: 1 of 5

Cc1nnc2c(c(=O)n(C)c(=O)n2C)[n+]1[O-]
survivor count (dose: 100.0 mg/kg/injection, schedule: Q01DX001 (ip), vehicle: saline): 0 of 6
survivor count (dose: 200.0 mg/kg/injection, schedule: Q01DX001 (ip), vehicle: saline): 0 of 6
survivor count (dose: 400.0 mg/kg/injection, schedule: Q01DX001 (ip), vehicle: saline): 0 of 6

O=C1OC2(c3ccccc31)c1cc(I)c(O)c(I)c1Oc1c2cc(I)c(O)c1I
survivor count [1]: 0 of 6

CCC1(O)CC2CN(CCc3c([nH]c4ccccc34)C(C(=O)OC)(c3cc4c(cc3OC)N(C)C3C(O)(C(N)=O)C(O)C5(CC)C=CCN6CCC43C65)C2)C1 (configuration not stated) (tested in a mixture with another compound)
T/C (dose: 0.06 mg/kg/injection, schedule: Q01DX009 (ip), vehicle: water): 145 % of control
T/C (dose: 0.06 mg/kg/injection, schedule: Q04DX003 (ip), vehicle: water): 125 % of control
T/C (dose: 0.12 mg/kg/injection, schedule: Q04DX003 (ip), vehicle: water): 140 % of control
T/C (dose: 0.13 mg/kg/injection, schedule: Q01DX009 (ip), vehicle: water): 126 % of control
T/C (dose: 0.25 mg/kg/injection, schedule: Q04DX003 (ip), vehicle: saline, evaluated on day 5): 113 and 150 % of control
T/C (dose: 0.25 mg/kg/injection, schedule: Q04DX003 (ip), vehicle: saline, evaluated on day 45): 183 % of control
T/C (dose: 0.25 mg/kg/injection, schedule: Q04DX003 (ip), vehicle: saline, evaluated on day 60): 166 % of control
T/C (dose: 0.36 mg/kg/injection, schedule: Q01DX009 (ip), vehicle: water): 132 % of control
T/C (dose: 0.38 mg/kg/injection, schedule: Q04DX003 (ip), vehicle: saline): 148 % of control
T/C (dose: 0.65 mg/kg/injection, schedule: Q04DX003 (ip), vehicle: clinical formulation): 148 % of control
T/C (dose: 0.87 mg/kg/injection, schedule: Q04DX003 (ip), vehicle: saline, evaluated on day 5): 124 and 203 % of control
T/C (dose: 0.87 mg/kg/injection, schedule: Q04DX003 (ip), vehicle: saline, evaluated on day 10): 120 % of control
T/C (dose: 0.87 mg/kg/injection, schedule: Q04DX003 (ip), vehicle: saline, evaluated on day 60): 215 % of control
T/C (dose: 1.0 mg/kg/injection, schedule: Q01DX009 (ip), vehicle: water): 133 % of control
survivor count (dose: 1.0 mg/kg/injection, schedule: Q04DX003 (ip), vehicle: saline): 6 of 6
T/C (dose: 1.3 mg/kg/injection, schedule: Q04DX003 (ip), vehicle: saline, evaluated on day 5): 135 and 222 % of control
T/C (dose: 1.3 mg/kg/injection, schedule: Q04DX003 (ip), vehicle: saline, evaluated on day 10): 129 % of control
T/C (dose: 1.3 mg/kg/injection, schedule: Q04DX003 (ip), vehicle: saline, evaluated on day 60): 206 % of control
T/C (dose: 2.0 mg/kg/injection, schedule: Q04DX003 (ip), vehicle: saline, evaluated on day 5): 136 and 222 % of control
T/C (dose: 2.0 mg/kg/injection, schedule: Q04DX003 (ip), vehicle: saline, evaluated on day 10): 127 % of control [8 of 9 alive]
T/C (dose: 2.0 mg/kg/injection, schedule: Q04DX003 (ip), vehicle: saline, evaluated on day 60): 191, 232, 274 % of control
survivor count (dose: 2.0 mg/kg/injection, schedule: Q04DX003 (ip), vehicle: saline): 5 of 6
T/C (dose: 3.0 mg/kg/injection, schedule: Q04DX003 (ip), vehicle: saline): 134 % of control [8 of 9 alive]
survivor count (dose: 4.0 mg/kg/injection, schedule: Q04DX003 (ip), vehicle: saline): 7 of 8 and 6 of 6
survivor count (dose: 5.0 mg/kg/injection, schedule: Q04DX003 (ip), vehicle: clinical formulation): 7 of 8

O=C1c2ccncc2C(=O)c2c(O)ccc(O)c21
survivor count (dose: 200.0 mg/kg/injection, schedule: Q01DX009 (ip), vehicle: distilled water + Tween-80): 0 of 6

CN(C)c1ccc2ccc(N(C)C)nc2c1
survivor count [4]: 4 of 6
survivor count [5]: 1 of 6

CC(NCCc1ccccc1)C1CCOC1=O (configuration not stated)
survivor count [6]: 3 of 6 and 5 of 6
survivor count [7]: 0 of 6 and 1 of 6

O=C(Nc1ccc(C(=O)Nc2ccc(C3=NCCCN3)cc2)cc1)Nc1ccc(C2=NCCCN2)cc1
T/C (dose: 12.5 mg/kg/injection, schedule: Q04DX003 (ip), vehicle: saline with Tween-80): 141 % of control
survivor count [8]: 4 of 6
survivor count (dose: 200.0 mg/kg/injection, schedule: Q04DX003 (ip), vehicle: saline): 1 of 6
survivor count (dose: 400.0 mg/kg/injection, schedule: Q04DX003 (ip), vehicle: saline): 0 of 6

Cc1cc(C)c[n+]([O-])c1
survivor count (dose: 50.0 mg/kg/injection, schedule: Q01DX009 (ip), vehicle: saline): 6 of 6
survivor count [6]: 6 of 6
survivor count [7]: 5 of 6

N#Cc1nc(CC(=O)c2ccc(Cl)cc2Cl)c(CC(=O)c2ccc(Cl)cc2Cl)nc1C#N
survivor count [9]: 1 of 6

C[CH2][Sn]([CH2]C)([S]CCS(=O)(=O)O)[S]CCS(=O)(=O)O (tested in a mixture with another compound)
T/C (dose: 1.87 mg/kg/injection, schedule: Q01DX005 (ip), vehicle: saline): 130 % of control
T/C (dose: 3.75 mg/kg/injection, schedule: Q01DX005 (ip), vehicle: saline): 130 and 133 % of control
T/C (dose: 7.5 mg/kg/injection, schedule: Q01DX005 (ip), vehicle: saline): 125 % of control
T/C [10]: 131 % of control
survivor count [10]: 3 of 6
survivor count (dose: 60.0 mg/kg/injection, schedule: Q01DX005 (ip), vehicle: saline): 0 of 6
survivor count (dose: 120.0 mg/kg/injection, schedule: Q01DX005 (ip), vehicle: saline): 0 of 6
survivor count [9]: 0 of 6

Cc1ccc(NC(=S)SCc2ccc(Cl)cc2)cc1Br
T/C (dose: 100.0 mg/kg/injection, schedule: Q01DX009 (ip), vehicle: Klucel (hydroxypropylcellulose) (HPC)): 125 % of control
T/C (dose: 400.0 mg/kg/injection, schedule: Q01DX009 (ip), vehicle: Klucel (hydroxypropylcellulose) (HPC)): 125 % of control

C=C(CCCC)[Se]c1ccccc1
T/C [8]: 135 % of control
survivor count [4]: 5 of 6
survivor count [5]: 1 of 6, 3 of 6, 4 of 6

N#Cc1c(C(=O)NOCCCc2ccccc2)cc(-c2ccc(F)cc2)[nH]c1=O
survivor count [3]: 3 of 6

Reference: PubChem BioAssay AID330 (DTP/NCI, 2004)
